According to patent US20160102103A1, “SUBSTITUTED PYRIDINE COMPOUNDS HAVING HERBICIDAL ACTIVITY” (BASF SE, priority 2013, published 2016):
Some of these results come from one statement about several compounds together.

Experiments:
Type in all cases: in vivo
[1] = tested on: Abutilon theophrasti; assay: greenhouse post-emergence herbicidal test, ABUTH; conditions: application rate 1.0 kg/ha, scale from 0 to 100
Description: (§1) The seeds of the test plants were sown separately for each species. For the post-emergence treatment, the test plants were first grown to a height of 3 to 15 cm, depending on the plant habit, and only then treated with the active ingredients which had been suspended or emulsified in water. For this purpose, the test plants were either sown directly and grown in the same containers, or they were first grown separately as seedlings and transplanted into the test containers a few days prior to treatment. Depending on the species, the plants were kept at 10-25° C. or 20-35° C., respectively. The test period extended over 2 to 4 weeks. During this time, the plants were tended, and their response to the individual treatments was evaluated. Evaluation was carried out using a scale from 0 to 100. 100 means no emergence of the plants, or complete destruction of at least the aerial moieties, and 0 means no damage, or normal course of growth. A good herbicidal activity is given at values of at least 70 and a very good herbicidal activity is given at values of at least 85. The plants used in the greenhouse experiments were of the following species: [table]

[2] = tested on: Setaria viridis; assay: greenhouse post-emergence herbicidal test, SETVI; conditions: scale from 0 to 100
Description: as §1

[3] = tested on: Echinocloa crus-galli; assay: greenhouse post-emergence herbicidal test, ECHCG; conditions: scale from 0 to 100
Description: as §1

[4] = tested on: Amaranthus retroflexus; assay: greenhouse post-emergence herbicidal test, AMARE; conditions: scale from 0 to 100
Description: as §1

[5] = tested on: Polygonum convolvulus; assay: greenhouse post-emergence herbicidal test, POLCO; conditions: scale from 0 to 100
Description: as §1

[6] = tested on: Chenopodium album; assay: greenhouse post-emergence herbicidal test, CHEAL; conditions: scale from 0 to 100

Row | Compound | herbicidal activity against ABUTH [1] | herbicidal activity against SETVI ([2]; application rate 1.0 kg/ha) | herbicidal activity against ECHCG ([3]; application rate 1.0 kg/ha) | herbicidal activity against CHEAL ([6]; application rate 0.125 kg/ha) | herbicidal activity against POLCO ([5]; application rate 0.125 kg/ha) | also measured
1 | Cc1c(Cl)ncc(Cl)c1C1=C(O)c2ncccc2C(C)S1(=O)=O (racemic) [Compound I-46] | very good herbicidal activity (a very good herbicidal activity is given at values of at least 85) | very good herbicidal activity (a very good herbicidal activity is given at values of at least 85) | very good herbicidal activity (a very good herbicidal activity is given at values of at least 85) |  |  | 
2 | O=S1(=O)Cc2cccnc2C(O)=C1c1c(Cl)cnc(Cl)c1Cl [Compound I-3, 6,6-dioxo-7-(2,3,5-trichloro-4-pyridyl)-5H-thiopyrano[4,3-b]pyridin-8-ol] | very good herbicidal activity (a very good herbicidal activity is given at values of at least 85) |  | very good herbicidal activity (a very good herbicidal activity is given at values of at least 85) |  |  | herbicidal activity against AMARE ([4]; application rate 1.0 kg/ha): very good herbicidal activity (a very good herbicidal activity is given at values of at least 85)
3 | CC(C)(C)C(=O)OC1=C(c2c(Cl)cnc(Cl)c2Cl)S(=O)(=O)C(C)(C)c2cccnc21 [Compound I-5, [5,5-dimethyl-6,6-dioxo-7-(2,3,5-trichloro-4-pyridyl)thiopyrano[4,3-b]pyridin-8-yl]2,2-dimethylpropanoate] |  |  |  |  |  | herbicidal activity against POLCO ([5]; application rate 0.25 kg/ha): very good herbicidal activity (a very good herbicidal activity is given at values of at least 85); herbicidal activity against AMARE ([4]; application rate 0.25 kg/ha): very good herbicidal activity (a very good herbicidal activity is given at values of at least 85); herbicidal activity against SETVI ([2]; application rate 0.25 kg/ha): very good herbicidal activity (a very good herbicidal activity is given at values of at least 85)
4 | COc1c(Cl)ncc(Cl)c1C1=C(OC(=O)C(C)(C)C)c2ncccc2C(C)S1(=O)=O (stereo not drawn) [Compound I-17] |  |  |  |  |  | herbicidal activity against CHEAL ([6]; application rate 0.25 kg/ha): very good herbicidal activity (a very good herbicidal activity is given at values of at least 85); herbicidal activity against POLCO ([5]; application rate 0.25 kg/ha): very good herbicidal activity (a very good herbicidal activity is given at values of at least 85); herbicidal activity against AMARE ([4]; application rate 0.25 kg/ha): very good herbicidal activity (a very good herbicidal activity is given at values of at least 85)
5 | COc1c(Cl)ncc(Cl)c1C1=C(O)c2ncccc2C(C)S1(=O)=O (stereo not drawn) [Compound I-18] | very good herbicidal activity (a very good herbicidal activity is given at values of at least 85) | very good herbicidal activity (a very good herbicidal activity is given at values of at least 85) | very good herbicidal activity (a very good herbicidal activity is given at values of at least 85) |  |  | 
6 | COc1c(Cl)ncc(Cl)c1C1=C(O)c2ncccc2C2(CC2)S1(=O)=O [Compound I-20] | very good herbicidal activity (a very good herbicidal activity is given at values of at least 85) | very good herbicidal activity (a very good herbicidal activity is given at values of at least 85) |  |  |  | herbicidal activity against AMARE ([4]; application rate 1.0 kg/ha): very good herbicidal activity (a very good herbicidal activity is given at values of at least 85)
7 | Cc1c(Cl)ncc(Cl)c1C1=C(O)c2ncccc2CS1(=O)=O [Compound I-31] | very good herbicidal activity (a very good herbicidal activity is given at values of at least 85) | very good herbicidal activity (a very good herbicidal activity is given at values of at least 85) |  |  |  | herbicidal activity against AMARE ([4]; application rate 1.0 kg/ha): very good herbicidal activity (a very good herbicidal activity is given at values of at least 85)
8 | Cc1c(Cl)ncc(Cl)c1C1=C(O)c2ncccc2C(C)(C)S1(=O)=O [Compound I-32] | very good herbicidal activity (a very good herbicidal activity is given at values of at least 85) | very good herbicidal activity (a very good herbicidal activity is given at values of at least 85) | very good herbicidal activity (a very good herbicidal activity is given at values of at least 85) |  |  | 
9 | CC1(C)c2cccnc2C(O)=C(c2c(Cl)cnc(Cl)c2Br)S1(=O)=O [Compound I-34] | very good herbicidal activity (a very good herbicidal activity is given at values of at least 85) | very good herbicidal activity (a very good herbicidal activity is given at values of at least 85) | very good herbicidal activity (a very good herbicidal activity is given at values of at least 85) |  |  | 
10 | Cc1c(Cl)ncc(Cl)c1C1=C(O)c2ncccc2C2(CC2)S1(=O)=O [Compound I-35] | very good herbicidal activity (a very good herbicidal activity is given at values of at least 85) | very good herbicidal activity (a very good herbicidal activity is given at values of at least 85) |  |  |  | herbicidal activity against AMARE ([4]; application rate 1.0 kg/ha): very good herbicidal activity (a very good herbicidal activity is given at values of at least 85)
11 | Cc1c(Cl)ncc(F)c1C1=C(O)c2ncccc2C(C)(C)S1(=O)=O [Compound I-37] | very good herbicidal activity (a very good herbicidal activity is given at values of at least 85) | very good herbicidal activity (a very good herbicidal activity is given at values of at least 85) | very good herbicidal activity (a very good herbicidal activity is given at values of at least 85) |  |  | 
12 | O=S1(=O)Cc2cccnc2C(O)=C1c1c(Cl)cnc(Cl)c1F [Compound I-38] |  |  |  | very good herbicidal activity (a very good herbicidal activity is given at values of at least 85) | very good herbicidal activity (a very good herbicidal activity is given at values of at least 85) | herbicidal activity against AMARE ([4]; application rate 0.125 kg/ha): good herbicidal activity (A good herbicidal activity is given at values of at least 70)
13 | O=S1(=O)Cc2cccnc2C(O)=C1c1c(Cl)cnc(Cl)c1OC(F)F [Compound I-42] |  |  |  | very good herbicidal activity (a very good herbicidal activity is given at values of at least 85) | very good herbicidal activity (a very good herbicidal activity is given at values of at least 85) | herbicidal activity against AMARE ([4]; application rate 0.125 kg/ha): very good herbicidal activity (a very good herbicidal activity is given at values of at least 85)
14 | CC1(C)c2cccnc2C(O)=C(c2c(Cl)cnc(Cl)c2OC(F)F)S1(=O)=O [Compound I-43] |  |  |  | very good herbicidal activity (a very good herbicidal activity is given at values of at least 85) | very good herbicidal activity (a very good herbicidal activity is given at values of at least 85) | herbicidal activity against SETVI ([2]; application rate 0.125 kg/ha): very good herbicidal activity (a very good herbicidal activity is given at values of at least 85)
15 | O=S1(=O)Cc2cccnc2C(O)=C1c1c(Br)cnc(Cl)c1Cl [Compound I-44] |  |  |  |  | very good herbicidal activity (a very good herbicidal activity is given at values of at least 85) | herbicidal activity against AMARE ([4]; application rate 0.125 kg/ha): very good herbicidal activity (a very good herbicidal activity is given at values of at least 85); herbicidal activity against SETVI ([2]; application rate 0.125 kg/ha): very good herbicidal activity (a very good herbicidal activity is given at values of at least 85)
16 | CC1(C)c2cccnc2C(O)=C(c2c(Br)cnc(Cl)c2Cl)S1(=O)=O [Compound I-45] |  |  |  | very good herbicidal activity (a very good herbicidal activity is given at values of at least 85) | very good herbicidal activity (a very good herbicidal activity is given at values of at least 85) | herbicidal activity against SETVI ([2]; application rate 0.125 kg/ha): very good herbicidal activity (a very good herbicidal activity is given at values of at least 85)
17 | CC1(C)c2cccnc2C(O)=C(c2c(Cl)cnc(Cl)c2C2CC2)S1(=O)=O [Compound I-48] | very good herbicidal activity (a very good herbicidal activity is given at values of at least 85) | very good herbicidal activity (a very good herbicidal activity is given at values of at least 85) |  |  |  | herbicidal activity against AMARE ([4]; application rate 1.0 kg/ha): very good herbicidal activity (a very good herbicidal activity is given at values of at least 85)
18 | O=S1(=O)Cc2cccnc2C(O)=C1c1c(Cl)cnc(Br)c1F [Compound I-51] |  |  |  | very good herbicidal activity (a very good herbicidal activity is given at values of at least 85) | very good herbicidal activity (a very good herbicidal activity is given at values of at least 85) | herbicidal activity against ECHCG ([3]; application rate 0.125 kg/ha): very good herbicidal activity (a very good herbicidal activity is given at values of at least 85)
19 | CC1(C)c2cccnc2C(O)=C(c2c(F)cnc(Br)c2Cl)S1(=O)=O [Compound I-54] |  |  |  | very good herbicidal activity (a very good herbicidal activity is given at values of at least 85) | very good herbicidal activity (a very good herbicidal activity is given at values of at least 85) | herbicidal activity against SETVI ([2]; application rate 0.125 kg/ha): very good herbicidal activity (a very good herbicidal activity is given at values of at least 85)
20 | CCc1c(Cl)ncc(Cl)c1C1=C(O)c2ncccc2C(C)(C)S1(=O)=O [Compound I-58] |  |  |  | very good herbicidal activity (a very good herbicidal activity is given at values of at least 85) | very good herbicidal activity (a very good herbicidal activity is given at values of at least 85) | herbicidal activity against SETVI ([2]; application rate 0.125 kg/ha): very good herbicidal activity (a very good herbicidal activity is given at values of at least 85)
